# Laboratory results reported in the supplement of paper PMC8728848.
# Some of the results follow.
# B1: LlpB (Pseudomonas fluorescens) (protein)
# chain: MGSSHHHHHHSSGLVPRGSHMASSGFRIILFNSANNGTAILPPRNCLVAGQYLESPSKRYKLILEADGNLRLYDNGVPIWVADSSVPYTYVDNRPNTNLVTCFYMQGSAFLVDRVGSRTWATIGDWIDGAADRAYLQVQDDGNVVVVDGVPRWARFGFTPAALPNRGVFYPDHGTGPLPSFPVWSWTF
# How the values were obtained:
# Assay in all cases: glycan array binding signal (z-score within array); higher = stronger binding
# Settings in all cases: glycan notation: IUPAC condensed, linker removed
# [1] = target: Fuc(a1-2)Gal(b1-4)GlcNAc(b1-3)Gal(b1-4)GlcNAc(b1-3)Gal(b1-4)GlcNAc
# In short: (§1)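 Glycan array binding is given as a within-array Z-score, which can be read as non-binding when negative. The arrays, 3228 of them, came from the Consortium for Functional Glycomics database and were retained only where the protein sequence was available. Z-scores were averaged across arrays of the same protein sequence at different concentrations or buffers and across linkers.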
# [2] = target: Fuc(a1-2)Gal(b1-4)GlcNAc(b1-3)GalNAc
# In short: as §1
# [3] = target: Fuc(a1-2)Gal(b1-4)GlcNAc(b1-3)[Fuc(a1-2)Gal(b1-4)GlcNAc(b1-6)]GalNAc
# In short: as §1
# [4] = target: Fuc(a1-2)Gal(b1-4)GlcNAc(b1-3)[Fuc(a1-3)[Gal(b1-4)]GlcNAc(b1-6)]Gal(b1-4)Glc
# In short: as §1
# [5] = target: Fuc(a1-2)Gal(b1-4)GlcNAc(b1-6)GalNAc
# In short: as §1
# [6] = target: Fuc(a1-2)Gal(b1-4)GlcNAc6S
# In short: as §1
# [7] = target: Fuc(a1-2)Gal(b1-4)[Fuc(a1-3)]GlcNAc
# In short: as §1
# [8] = target: Fuc(a1-2)Gal(b1-4)[Fuc(a1-3)]GlcNAc(b1-2)Man(a1-3)[Fuc(a1-2)Gal(b1-4)[Fuc(a1-3)]GlcNAc(b1-2)Man(a1-6)]Man(b1-4)GlcNAc(b1-4)[Fuc(a1-6)]GlcNAc
# In short: as §1
# [9] = target: Fuc(a1-2)Gal(b1-4)[Fuc(a1-3)]GlcNAc(b1-2)[Fuc(a1-2)Gal(b1-4)[Fuc(a1-3)]GlcNAc(b1-4)]Man(a1-3)[Fuc(a1-2)Gal(b1-4)[Fuc(a1-3)]GlcNAc(b1-2)Man(a1-6)]Man(b1-4)GlcNAc(b1-4)GlcNAc
# In short: as §1
# [10] = target: Fuc(a1-2)Gal(b1-4)[Fuc(a1-3)]GlcNAc(b1-3)Gal(b1-4)[Fuc(a1-3)]GlcNAc
# In short: as §1
# [11] = target: Fuc(a1-2)Gal(b1-4)[Fuc(a1-3)]GlcNAc(b1-3)Gal(b1-4)[Fuc(a1-3)]GlcNAc(b1-3)Gal(b1-4)[Fuc(a1-3)]GlcNAc
# In short: as §1
# [12] = target: Fuc(a1-2)Gal(b1-4)[Fuc(a1-3)]GlcNAc(b1-3)GalNAc
# In short: as §1
# [13] = target: Fuc(a1-2)Gal(b1-4)[Fuc(a1-3)]GlcNAc(b1-3)[Neu5Ac(a2-6)Gal(b1-4)GlcNAc(b1-6)]Gal(b1-4)Glc
# In short: as §1
# [14] = target: Fuc(a1-2)Gal3S(b1-4)GlcNAc
# In short: as §1
# [15] = target: Fuc(a1-2)Gal6S(b1-3)GlcNAc
# In short: as §1
# [16] = target: Fuc(a1-2)Gal6S(b1-3)GlcNAc6S
# In short: as §1
# Fuc(a1-2)Gal6S(b1-4)Glc = target: Fuc(a1-2)Gal6S(b1-4)Glc
# In short: as §1
# [17] = target: Fuc(a1-2)Gal6S(b1-4)Glc6S
# In short: as §1
# Fuc(a1-2)[Gal(a1-3)]Gal = target: Fuc(a1-2)[Gal(a1-3)]Gal
# In short: as §1
# [18] = target: Fuc(a1-2)[Gal(a1-3)]Gal(b1-3)GalNAc
# In short: as §1
# [19] = target: Fuc(a1-2)[Gal(a1-3)]Gal(b1-3)GalNAc(b1-3)Gal(a1-4)Gal(b1-4)Glc
# In short: as §1
# [20] = target: Fuc(a1-2)[Gal(a1-3)]Gal(b1-3)GlcNAc
# In short: as §1
# [21] = target: Fuc(a1-2)[Gal(a1-3)]Gal(b1-3)GlcNAc(b1-2)Man(a1-3)[Fuc(a1-2)[Gal(a1-3)]Gal(b1-3)GlcNAc(b1-2)Man(a1-6)]Man(b1-4)GlcNAc(b1-4)GlcNAc
# In short: as §1
# [22] = target: Fuc(a1-2)[Gal(a1-3)]Gal(b1-3)GlcNAc(b1-2)Man(a1-3)[Fuc(a1-2)[Gal(a1-3)]Gal(b1-3)GlcNAc(b1-2)Man(a1-6)]Man(b1-4)GlcNAc(b1-4)[Fuc(a1-6)]GlcNAc
# In short: as §1
# [23] = target: Fuc(a1-2)[Gal(a1-3)]Gal(b1-3)GlcNAc(b1-3)GalNAc
# In short: as §1
# [24] = target: Fuc(a1-2)[Gal(a1-3)]Gal(b1-3)GlcNAc(b1-6)GalNAc
# In short: as §1
# [25] = target: Fuc(a1-2)[Gal(a1-3)]Gal(b1-4)Glc
# In short: as §1
# [26] = target: Fuc(a1-2)[Gal(a1-3)]Gal(b1-4)GlcNAc
# In short: as §1
# [27] = target: Fuc(a1-2)[Gal(a1-3)]Gal(b1-4)GlcNAc(b1-2)Man
# In short: as §1
# [28] = target: Fuc(a1-2)[Gal(a1-3)]Gal(b1-4)GlcNAc(b1-2)Man(a1-3)[Fuc(a1-2)[Gal(a1-3)]Gal(b1-4)GlcNAc(b1-2)Man(a1-6)]Man(b1-4)GlcNAc(b1-4)GlcNAc
# In short: as §1
# [29] = target: Fuc(a1-2)[Gal(a1-3)]Gal(b1-4)GlcNAc(b1-2)Man(a1-3)[Fuc(a1-2)[Gal(a1-3)]Gal(b1-4)GlcNAc(b1-2)Man(a1-6)]Man(b1-4)GlcNAc(b1-4)[Fuc(a1-6)]GlcNAc
# In short: as §1
# [30] = target: Fuc(a1-2)[Gal(a1-3)]Gal(b1-4)GlcNAc(b1-3)GalNAc
# In short: as §1
# [31] = target: Fuc(a1-2)[Gal(a1-3)]Gal(b1-4)GlcNAc(b1-3)[Fuc(a1-2)[Gal(a1-3)]Gal(b1-4)GlcNAc(b1-6)]GalNAc
# In short: as §1
# [32] = target: Fuc(a1-2)[Gal(a1-3)]Gal(b1-4)GlcNAc(b1-6)GalNAc
# In short: as §1
# [33] = target: Fuc(a1-2)[Gal(a1-3)]Gal(b1-4)[Fuc(a1-3)]Glc
# In short: as §1
# [34] = target: Fuc(a1-2)[Gal(a1-3)]Gal(b1-4)[Fuc(a1-3)]GlcNAc
# In short: as §1
# [35] = target: Fuc(a1-2)[Gal(a1-3)]Gal(b1-4)[Fuc(a1-3)]GlcNAc(b1-3)GalNAc
# In short: as §1
# [36] = target: Fuc(a1-2)[Gal(a1-4)]Gal(b1-4)GlcNAc
# In short: as §1
# [37] = target: Fuc(a1-2)[GalNAc(a1-3)]Gal
# In short: as §1
# [38] = target: Fuc(a1-2)[GalNAc(a1-3)]Gal(b1-3)GalNAc(a1-3)[Fuc(a1-2)]Gal(b1-4)GlcNAc
# In short: as §1
# [39] = target: Fuc(a1-2)[GalNAc(a1-3)]Gal(b1-3)GalNAc(b1-3)Gal(a1-4)Gal(b1-4)Glc
# In short: as §1
# [40] = target: Fuc(a1-2)[GalNAc(a1-3)]Gal(b1-3)GlcNAc
# In short: as §1
# [41] = target: Fuc(a1-2)[GalNAc(a1-3)]Gal(b1-3)GlcNAc(b1-2)Man(a1-3)[Fuc(a1-2)[GalNAc(a1-3)]Gal(b1-3)GlcNAc(b1-2)Man(a1-6)]Man(b1-4)GlcNAc(b1-4)GlcNAc
# In short: as §1
# [42] = target: Fuc(a1-2)[GalNAc(a1-3)]Gal(b1-3)GlcNAc(b1-2)Man(a1-3)[Fuc(a1-2)[GalNAc(a1-3)]Gal(b1-3)GlcNAc(b1-2)Man(a1-6)]Man(b1-4)GlcNAc(b1-4)[Fuc(a1-6)]GlcNAc
# In short: as §1
# [43] = target: Fuc(a1-2)[GalNAc(a1-3)]Gal(b1-3)GlcNAc(b1-3)GalNAc
# In short: as §1
binder,measurement,setting,value
B1,glycan array binding signal (z-score),[1],2.58
same,glycan array binding signal (z-score),[2],2.13
same,glycan array binding signal (z-score),[3],-0.481
same,glycan array binding signal (z-score),[4],-0.33
same,glycan array binding signal (z-score),[5],0.91
same,glycan array binding signal (z-score),[6],0.572
same,glycan array binding signal (z-score),[7],0.594
same,glycan array binding signal (z-score),[8],-0.049
same,glycan array binding signal (z-score),[9],1.92
same,glycan array binding signal (z-score),[10],-0.086
same,glycan array binding signal (z-score),[11],0.051
same,glycan array binding signal (z-score),[12],-0.008
same,glycan array binding signal (z-score),[13],0.032
same,glycan array binding signal (z-score),[14],-0.965
same,glycan array binding signal (z-score),[15],-0.264
same,glycan array binding signal (z-score),[16],-0.179
same,glycan array binding signal (z-score),Fuc(a1-2)Gal6S(b1-4)Glc,-1.77
same,glycan array binding signal (z-score),[17],0.007
same,glycan array binding signal (z-score),Fuc(a1-2)[Gal(a1-3)]Gal,0.062
same,glycan array binding signal (z-score),[18],1.28
same,glycan array binding signal (z-score),[19],-0.974
same,glycan array binding signal (z-score),[20],-0.51
same,glycan array binding signal (z-score),[21],0.022
same,glycan array binding signal (z-score),[22],-0.218
same,glycan array binding signal (z-score),[23],-1.03
same,glycan array binding signal (z-score),[24],-0.511
same,glycan array binding signal (z-score),[25],-1.17
same,glycan array binding signal (z-score),[26],0.037
same,glycan array binding signal (z-score),[27],0.961
same,glycan array binding signal (z-score),[28],0.397
same,glycan array binding signal (z-score),[29],-0.643
same,glycan array binding signal (z-score),[30],-1.23
same,glycan array binding signal (z-score),[31],0.507
same,glycan array binding signal (z-score),[32],0.491
same,glycan array binding signal (z-score),[33],-1.18
same,glycan array binding signal (z-score),[34],0.244
same,glycan array binding signal (z-score),[35],-0.915
same,glycan array binding signal (z-score),[36],1.47
same,glycan array binding signal (z-score),[37],0.524
same,glycan array binding signal (z-score),[38],-0.416
same,glycan array binding signal (z-score),[39],-0.872
same,glycan array binding signal (z-score),[40],-0.102
same,glycan array binding signal (z-score),[41],1.25
same,glycan array binding signal (z-score),[42],-0.697
same,glycan array binding signal (z-score),[43],-0.108
